These results are taken from patent publication US6387902B1, “Phenazine compounds, methods and pharmaceutical compositions for inhibiting PARP” (Guilford Pharmaceuticals, Inc., priority 1998, dated 2002).

The data set relates to male Long-Evans rats. The data set can be described thus: Neuroprotective effect of DPQ on focal cerebral ischemia (MCA cauterization with bilateral CCA occlusion 90 min). Type of data set: in vivo, rat. Particulars: laser Doppler, control 20.8±7.7.

Structures are written as SMILES.

As for `O=C1NCCc2c(OCCCCN3CCCCC3)cccc21` [DPQ, 3,4-dihydro-5-[4-(1-piperidinyl)-butoxy]-1(2H)-isoquinolinone], the “relative blood flow in the right parietal cortex during occlusion” value is, setting by setting: (5 mg/kg) 18.7±7.4 % of the baseline; (10 mg/kg) 21.4±7.7 % of the baseline; (40 mg/kg) 19.3±11.2 % of the baseline.
